Values from PubChem BioAssay AID1259254 (NCATS, 2017).

Assay: 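Finding genes that stop cells copying their DNA twice in one cycle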 (primary screen)
System: human HCT116 colorectal cancer cells
Reagent: single siRNA against human genes
Time to read-out: 3 days
Measured: 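Nuclei stained with Hoechst and imaged; cell-cycle phase assigned by DNA content; G2 share scaled per plate, non-targeting siRNA 0%, GMNN siRNA 100%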
Scale: G2 robust z-score: higher = more G2 cells, more excess DNA replication
Hit rule: 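An siRNA counts as active if its G2 robust z-score lies at least 5 MADs above the screen median; here such calls match roughly 38% of GMNN control or more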
In all, the deposit lists about 59,000 reagents; below is a random part of them. About 1,550 of them (2.6%) count as active. 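G2 share is only a proxy for re-replication; each gene was hit by three separate siRNAs, and active genes were retested.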 Reagents against one gene are numbered here. Not all columns of the deposit are shown. Reagent sequences are not shown. The record does not give: the amount of reagent.

| Gene | siRNA no. | G2 robust z-score | Call |
| --- | --- | --- | --- |
| CEP78 | 1 | -0.963 | inactive |
| CEP78 | 2 | -0.227 | inactive |
| CEP78 | 3 | -0.315 | inactive |
| CARD11 | 1 | 0.0126 | inactive |
| CARD11 | 2 | -0.224 | inactive |
| CARD11 | 3 | -0.379 | inactive |
| PJA2 | 1 | 1.4 | inactive |
| PJA2 | 2 | -0.778 | inactive |
| PJA2 | 3 | 0.67 | inactive |
| TRMT44 | 1 | -0.17 | inactive |
| TRMT44 | 2 | -0.946 | inactive |
| TRMT44 | 3 | -0.0947 | inactive |
| PTCH1 | 1 | 0.0198 | inactive |
| PTCH1 | 2 | -0.855 | inactive |
| PTCH1 | 3 | 2.28 | inactive |
| LOC401021 | 1 | -0.299 | inactive |
| LOC401021 | 2 | 0.239 | inactive |
| LOC401021 | 3 | -0.511 | inactive |

Continued; the last 6 above are carried over.
| Gene | siRNA no. | G2 robust z-score | Call |
| --- | --- | --- | --- |
| PTCH1 | 1 | 0.0198 | inactive |
| PTCH1 | 2 | -0.855 | inactive |
| PTCH1 | 3 | 2.28 | inactive |
| LOC401021 | 1 | -0.299 | inactive |
| LOC401021 | 2 | 0.239 | inactive |
| LOC401021 | 3 | -0.511 | inactive |
| MRPL22 | 1 | -0.905 | inactive |
| MRPL22 | 2 | -0.282 | inactive |
| MRPL22 | 3 | -0.673 | inactive |
| FAM133A | 1 | -0.972 | inactive |
| FAM133A | 2 | -1.02 | inactive |
| FAM133A | 3 | -0.59 | inactive |
| IRX1 | 1 | 0.707 | inactive |
| IRX1 | 2 | -0.441 | inactive |
| IRX1 | 3 | 2.12 | inactive |
| SEC13 | 1 | 1.9 | inactive |
| SEC13 | 2 | -0.852 | inactive |
| SEC13 | 3 | 0.785 | inactive |
| DDX18 | 1 | 0.756 | inactive |
| DDX18 | 2 | 9.5 | active |
| DDX18 | 3 | 0.723 | inactive |
| OR5AN1 | 1 | 3.53 | inactive |
| OR5AN1 | 2 | 1.13 | inactive |
| OR5AN1 | 3 | -0.155 | inactive |
| SSU72L6 | 1 | -0.729 | inactive |
| SSU72L6 | 2 | -0.869 | inactive |
| SSU72L6 | 3 | -0.16 | inactive |
| ZNF550 | 1 | -0.841 | inactive |
| ZNF550 | 2 | 0.664 | inactive |
| ZNF550 | 3 | -0.127 | inactive |
| PDYN | 1 | 3.86 | inactive |
| PDYN | 2 | -0.981 | inactive |
| PDYN | 3 | -0.761 | inactive |
| COQ7 | 1 | -0.634 | inactive |
| COQ7 | 2 | -0.59 | inactive |
| COQ7 | 3 | -0.865 | inactive |
